Measured values as given in PubChem BioAssay AID504327 (National Center for Advancing Translational Sciences (NCATS), 2011).
In all, about 390,000 compounds went through this assay and about 820 (0.21%) were called active. The shares of active, inactive and inconclusive entries below differ from those in the screen. Calls follow the shape of the dose curve; as a rule, active = well fitted inhibition curve with a large enough effect; inconclusive = small, poorly fitted or top-dose-only effect, or another doubt; inactive = no such curve, though single readings can be large or run the other way. Where the call is inconclusive, the potency comes from a doubtful curve fit.

Chains of the proteins cited; added tags and fusions are not shown.
UniProt Q92830, whole entry, looked up: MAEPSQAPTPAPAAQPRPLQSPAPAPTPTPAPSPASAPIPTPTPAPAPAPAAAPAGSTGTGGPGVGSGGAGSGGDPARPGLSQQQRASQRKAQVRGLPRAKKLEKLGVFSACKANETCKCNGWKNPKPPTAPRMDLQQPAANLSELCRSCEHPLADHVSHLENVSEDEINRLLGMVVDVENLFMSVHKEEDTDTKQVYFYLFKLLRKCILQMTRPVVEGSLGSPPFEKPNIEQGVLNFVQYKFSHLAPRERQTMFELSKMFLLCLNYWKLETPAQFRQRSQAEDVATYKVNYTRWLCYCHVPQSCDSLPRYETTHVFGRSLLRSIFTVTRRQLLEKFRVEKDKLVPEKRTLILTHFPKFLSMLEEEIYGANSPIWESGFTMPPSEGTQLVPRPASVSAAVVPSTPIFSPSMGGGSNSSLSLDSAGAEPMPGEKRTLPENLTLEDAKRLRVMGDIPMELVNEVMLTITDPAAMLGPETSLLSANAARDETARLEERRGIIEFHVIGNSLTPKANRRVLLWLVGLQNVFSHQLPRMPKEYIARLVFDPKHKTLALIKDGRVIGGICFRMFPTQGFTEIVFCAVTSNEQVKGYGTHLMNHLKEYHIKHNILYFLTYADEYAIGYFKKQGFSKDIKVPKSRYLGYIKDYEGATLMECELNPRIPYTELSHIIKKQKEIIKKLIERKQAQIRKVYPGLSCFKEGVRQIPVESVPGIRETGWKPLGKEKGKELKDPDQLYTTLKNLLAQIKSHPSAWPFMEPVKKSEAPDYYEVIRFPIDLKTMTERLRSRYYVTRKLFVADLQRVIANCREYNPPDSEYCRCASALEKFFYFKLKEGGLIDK

Target: Histone acetyltransferase KAT2A (Homo sapiens) (UniProt Q92830)
Experiment: qHTS Assay for Inhibitors of GCN5L2
Conditions: GCN5L2 HAT assay, ThioGlo1 CoA-SH fluorescence; series mostly up to 58.9 µM
In short: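 Compounds, pin-transferred from DMSO stocks, meet 20nM GCN5L2 for 15 min before the reaction begins with H3(1-25) peptide (75uM) and acetyl-CoA (70uM). Thiol-reactive ThioGlo1 reports CoA release over 20 min at room temperature.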
Potency is read from the fitted curve at half-maximal effect.

With `CCCN1CCN(S(=O)(=O)c2cc3c(cc2C)NC(=O)CO3)CC1` as the compound, how does the Potency read?
The Potency was inconclusive: 39.8 µM [inhibitor, single point].

With `COc1cccc(NS(=O)(=O)c2cc3c(cc2C)N(C)CCO3)c1` as the compound, how does the Potency read?
Its Potency is inconclusive: 5.62 µM [inhibitor, single point].

Which Potency does the source give for `CCN(C(N)=S)c1ccccc1` here?
Its Potency is inconclusive: 0.708 µM [inhibitor, single point].

How did the Potency turn out when `CC(=O)c1cccc(S(=O)(=O)NC2CCSc3ccccc32)c1` (stereo not given) was run?
Its Potency is “inactive”.

Which Potency does the source give for `O=C(CSc1nnc(-c2ccccc2F)o1)N1CCc2ccccc21` here?
Its Potency is “inactive”.

For `C=CCNC(=O)/C(C#N)=C/c1cn(-c2ccccc2)nc1-c1cccs1`, which Potency is on record?
The Potency was inconclusive: 39.8 µM [inhibitor, single point].

With `O=C(CSc1nnc2c(n1)[nH]c1ccc(F)cc12)N1CCOCC1` as the compound, how does the Potency read?
Its Potency is “inactive”.

`CCOC(=O)c1ccc(NC(=O)CCNS(=O)(=O)c2ccc3c(c2)oc(=O)n3C)cc1` was tested. Which Potency did it give?
The Potency was inconclusive: 39.8 µM [inhibitor, single point].

`N#Cc1cccc(-c2nc(NCc3ccccc3)c3ccccc3n2)c1` was tested. Which Potency did it give?
Its Potency is inconclusive: 31.6 µM [inhibitor, partial curve].

How did the Potency turn out when `CN(C)S(=O)(=O)c1ccc(C(=O)NCC(c2cccs2)N2CCOCC2)cc1` (stereo not given) was run?
The Potency was inconclusive: 39.8 µM [inhibitor, partial curve, poor fit].

With `NS(=O)(=O)c1ccc(CNC(=O)c2csc3c2CCCC3)cc1` as the compound, how does the Potency read?
The Potency was “inactive”.

For `COc1ccccc1C1CC(=O)Oc2c(C(C)C)ccc(C)c21` (stereo not given), which Potency is on record?
The Potency was inconclusive: 14.1 µM [inhibitor, partial curve].

For `NCC1CC2c3ccccc3C1c1ccccc12` (stereo not given), which Potency is on record?
The Potency was “inactive”.

With `C[C@H](N)c1nnc(SCC(N)=O)o1` as the compound, how does the Potency read?
The Potency was “inactive”.

`COc1ccc(N2CCN(c3oc(-c4ccccc4OC)nc3C#N)CC2)cc1` was tested. Which Potency did it give?
Its Potency is inconclusive: 35.5 µM [inhibitor, single point].

With `COc1cccc(CN2CCC(C(=O)N3CCN(Cc4ccc5c(c4)OCO5)CC3)CC2)c1` as the compound, how does the Potency read?
The Potency was inconclusive: 0.794 µM [inhibitor, single point].

With `CCN(CC)c1ccc(NC(=O)c2ccc(=O)[nH]c2)cc1S(=O)(=O)Nc1ccccc1OC` as the compound, how does the Potency read?
The Potency was inconclusive: 25.1 µM [inhibitor, partial curve].

With `O=C(O)c1cccc(Cn2c(Cl)c(/C=N/NC(=O)c3cc4ccccc4cc3O)sc2=O)c1` as the compound, how does the Potency read?
The Potency was inconclusive: 8.91 µM [inhibitor, partial curve].

With `CC(=O)Nc1ccc(N/C=C(\C#N)S(=O)(=O)c2ccc(Cl)cc2)cc1` as the compound, how does the Potency read?
The Potency was inconclusive: 3.16 µM [inhibitor, single point].

How did the Potency turn out when `CCOC(=O)CSc1c(-c2ccccc2)c2cc(Cl)ccc2[nH]c1=O` was run?
The Potency was “inactive”.
